Results deposited as PubChem BioAssay AID743458 (Peter MacCallum Cancer Centre, 2014)

- Test: 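Retest earlier hits with independent siRNAs per gene for restoring vorinostat sensitivity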 (follow-up of hits)
- System: human HCT116-VR colon cancer cells made resistant to vorinostat
- Reagent: single siRNA or pool against human genes, 25 nM per single siRNA
- Duration: about 72 h after transfection, including 24 h of drug
- Treatment: vorinostat, 2.5 µM final, for 24 h
- Detection: 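Live-cell fluorescent viability and luminescent caspase 3/7 activity after vorinostat treatment, background subtracted, mean of duplicate plates, as fold change over mock-transfected wells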
- Reading the numbers: viability relative to mock: higher = more living cells than mock; caspase activity relative to mock: higher = more apoptosis than mock
- Call rule: 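Active means a reduced-viability or caspase-activation class, anything else inactive; classes could only be given to wells that looked healthy when left untreated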
Here is a random part of about 1,800 reagents tested. Over the whole deposit, 732 (41%) got an active call. 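Calls are per siRNA reagent; a gene was deemed confirmed only if most of its four siRNAs scored.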

Target gene,PubChem SID,viability relative to mock,caspase activity relative to mock,viability hit class,caspase hit class,outcome
EXOSC5 (exosome component 5),SID134286433,0.65,1.31,no change,no change,inactive
EXOSC5 (exosome component 5),SID134286434,0.64,2.24,no change,no change,inactive
EXOSC5 (exosome component 5),SID134286435,0.67,0.84,no change,no change,inactive
EXOSC5 (exosome component 5),SID152154626,0.17,3,reduced viability,caspase activation,active
ATP6V1B2 (ATPase H+ transporting V1 subunit B2),SID134253389,0.94,1.2,no change,no change,inactive
ATP6V1B2 (ATPase H+ transporting V1 subunit B2),SID134253390,0.33,4.65,reduced viability,caspase activation,active
ATP6V1B2 (ATPase H+ transporting V1 subunit B2),SID134253391,0.94,0.97,no change,no change,inactive
ATP6V1B2 (ATPase H+ transporting V1 subunit B2),SID134253392,0.54,2.62,reduced viability,caspase activation,active
GSX2 (GS homeobox 2),SID134267577,0.88,0.9,no change,no change,inactive
GSX2 (GS homeobox 2),SID134267578,0.66,3.7,no change,caspase activation,active
GSX2 (GS homeobox 2),SID134267579,0.94,0.92,no change,no change,inactive
GSX2 (GS homeobox 2),SID134267580,0.82,2.31,no change,no change,inactive
RASAL2 (RAS protein activator like 2),SID134246369,0.4,5.31,reduced viability,caspase activation,active
RASAL2 (RAS protein activator like 2),SID134246370,0.6,1.39,no change,no change,inactive
RASAL2 (RAS protein activator like 2),SID134246372,1.16,1.29,no change,no change,inactive
RASAL2 (RAS protein activator like 2),SID135612934,0.65,1.86,no change,no change,inactive
RERE (arginine-glutamic acid dipeptide repeats),SID134242701,0.46,6.44,reduced viability,caspase activation,active
RERE (arginine-glutamic acid dipeptide repeats),SID134242704,1.13,1.19,no change,no change,inactive
RERE (arginine-glutamic acid dipeptide repeats),SID135612617,0.38,4.41,reduced viability,caspase activation,active
RERE (arginine-glutamic acid dipeptide repeats),SID135612618,0.42,1.96,reduced viability,no change,active
IRX2-DT (IRX2 divergent transcript),SID134277061,0.92,2.44,no change,no change,inactive
IRX2-DT (IRX2 divergent transcript),SID134277062,0.44,4.92,reduced viability,caspase activation,active
IRX2-DT (IRX2 divergent transcript),SID134277063,0.92,1.29,no change,no change,inactive
IRX2-DT (IRX2 divergent transcript),SID134277064,0.76,8.19,no change,caspase activation,active
GPER1 (G protein-coupled estrogen receptor 1),SID134233745,0.52,3.52,reduced viability,caspase activation,active
GPER1 (G protein-coupled estrogen receptor 1),SID134233746,0.9,2.66,no change,caspase activation,active
GPER1 (G protein-coupled estrogen receptor 1),SID134233748,0.59,2.34,no change,no change,inactive
GPER1 (G protein-coupled estrogen receptor 1),SID135611826,0.9,2.02,no change,no change,inactive
NUP58 (nucleoporin 58),SID134261982,0.41,1.86,reduced viability,no change,active
NUP58 (nucleoporin 58),SID134261983,0.49,3.36,reduced viability,caspase activation,active
NUP58 (nucleoporin 58),SID135614242,0.52,3.58,reduced viability,caspase activation,active
NUP58 (nucleoporin 58),SID135614243,0.55,3.05,reduced viability,caspase activation,active
EIF2B2 (eukaryotic translation initiation factor 2B subunit beta),SID134286977,0.66,1.15,no change,no change,inactive
EIF2B2 (eukaryotic translation initiation factor 2B subunit beta),SID134286978,0.58,1.61,no change,no change,inactive
EIF2B2 (eukaryotic translation initiation factor 2B subunit beta),SID134286979,0.29,1.48,reduced viability,no change,active
EIF2B2 (eukaryotic translation initiation factor 2B subunit beta),SID134286980,0.26,2.66,reduced viability,caspase activation,active
LAG3 (lymphocyte activating 3),SID134236949,1,1.58,no change,no change,inactive
LAG3 (lymphocyte activating 3),SID134236950,0.75,1.52,no change,no change,inactive
LAG3 (lymphocyte activating 3),SID134236951,0.44,6.06,reduced viability,caspase activation,active
LAG3 (lymphocyte activating 3),SID134236952,0.72,1.62,no change,no change,inactive

A few values from the entries so far.
Entry of LAG3 (lymphocyte activating 3) [SID134236951] under “outcome”: active
For “viability relative to mock”, GSX2 (GS homeobox 2) [SID134267578] has 0.66
Value for GSX2 (GS homeobox 2) [SID134267579] in “viability relative to mock”: 0.94
Under “caspase activity relative to mock”, GPER1 (G protein-coupled estrogen receptor 1) [SID135611826] is entered as 2.02
RERE (arginine-glutamic acid dipeptide repeats) [SID135612618], viability relative to mock = 0.42
Entry for GPER1 (G protein-coupled estrogen receptor 1) [SID134233745] in “viability hit class”: reduced viability
